The list shows only some results of the screen, not a fair sample: it gathers tests that were run many times, whatever their T/C, doses with no T/C, and many T/C values between a quarter and a half above the control. Further doses and runs are listed elsewhere. T/C is the treated group as % of the vehicle group. Some doses have a count of surviving animals in place of a T/C: the source holds a T/C of zero for them, seemingly a mark for toxic or unscored doses. Some survivor counts are full or nearly so, which does not show that the dose was tolerated: survival well below the control is almost never listed, so the zero probably covers shortened survival too. Survivors were counted at the toxicity check, usually on the fifth day, unless a day is given; later deaths do not show. Schedule codes are those of the source, read here as Q, the interval in days (D) or hours (H), X, the number of doses. Some entries were tested several times; the results are listed from low to high. For survival time, this PubChem deposit counts one and a half times the control or more as active, and values a quarter to a half above the control carry no call in these data; other NCI protocols may use other cut-offs. Some T/C values are followed by the survivors on the day toxicity was checked, most often the fifth; where none is given, no animal had died by that day.

The experiment deals with CD2F1 mice, L1210 leukemia ip, survival T/C. As to the kind of experiment: NCI In Vivo Anticancer Drug Screen. Data for tumor model L1210 Leukemia (intraperitoneal) in CD2F1 (CDF1) mice. The conditions noted are these: higher T/C = longer survival. The method in brief:
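Activity against a transplanted murine tumor was judged by comparing the compound group with a vehicle group. The outcome in the treated animals was divided by that in the controls.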

[1] abbreviates: T/C endpoint: mean survival time, dose: 400.0 mg/kg/injection, schedule: Q01DX009 (ip), vehicle: saline with Tween-80.
Setting [2] is: T/C endpoint: mean survival time, dose: 200.0 mg/kg/injection, schedule: Q01DX009 (ip), vehicle: saline with Tween-80.
Setting [3] is: T/C endpoint: mean survival time, dose: 400.0 mg/kg/injection, schedule: Q01DX009 (ip), vehicle: saline.
[4] abbreviates: T/C endpoint: mean survival time, dose: 200.0 mg/kg/injection, schedule: Q01DX009 (ip), vehicle: saline.

For the molecule `COC(=O)c1c[nH]c(=S)n1C(C)c1ccccc1` (stereo unspecified), the survivor count under setting [1] is recorded as 3 of 6.

For the molecule `COC(=O)[C@@H]1c2cc3c(c(O)c2[C@@H](OC2OC(C)C(OC)C(C)(OC)C2OC)C[C@]1(C)O)C(=O)c1c(O)cc2c(c1C3=O)O[C@H]1O[C@]2(C)[C@H](O)[C@@H](N(C)C)[C@@H]1O` (stereo partly specified), the survivor count (T/C endpoint: mean survival time, dose: 2.0 mg/kg/injection, schedule: Q01DX009 (ip), vehicle: other) was 3 of 6 and 4 of 6.

On to `CN1C2CCC1C(Br)C(=O)C2` (stereo unspecified), for which, under “T/C endpoint: median survival time, dose: 400.0 mg/kg/injection, schedule: Q01DX009 (ip), vehicle: saline”, the survivor count is listed as 0 of 6.

On to `Clc1ccc([PH+](c2ccc(Cl)cc2)c2ccc(Cl)cc2)cc1.Clc1ccc([PH+](c2ccc(Cl)cc2)c2ccc(Cl)cc2)cc1.[Cl][Hg][Cl]`, for which the survivor count (T/C endpoint: mean survival time, dose: 25.0 mg/kg/injection, schedule: Q01DX009 (ip), vehicle: Klucel (hydroxypropylcellulose) (HPC)) was 1 of 3.

For the molecule `CN(CCN1CCCCC1)C(=O)C(O)(c1ccccc1)c1ccccc1`, the survivor count (T/C endpoint: mean survival time, dose: 300.0 mg/kg/injection, schedule: Q01DX001 (ip), vehicle: saline) is reported as 2 of 6.

Take `Oc1ccc(SCc2ccc(NCc3ccccc3)cc2)cc1`: the survivor count (T/C endpoint: mean survival time, dose: 200.0 mg/kg/injection, schedule: Q01DX009 (ip), vehicle: DMSO) is listed as 2 of 6 and the survivor count (T/C endpoint: mean survival time, dose: 400.0 mg/kg/injection, schedule: Q01DX009 (ip), vehicle: DMSO) was 0 of 6.

In the case of `Cc1ccc(S/C=C/C(=O)Nc2ccccc2)cc1`, the survivor count (T/C endpoint: mean survival time, dose: 200.0 mg/kg/injection, schedule: Q04DX003 (ip), vehicle: saline with Tween-80) is on record as 6 of 6 and the survivor count (T/C endpoint: mean survival time, dose: 400.0 mg/kg/injection, schedule: Q04DX003 (ip), vehicle: saline with Tween-80) is on record as 6 of 6.

Turning to `O=C(OC/C=C/CCl)c1ccc([N+](=O)[O-])cc1`, the survivor count runs as follows: under setting [2], 3 of 6; under setting [1], 3 of 6.

Take `CCC1(OC(=O)CN)C(=O)OCc2c1cc1n(c2=O)Cc2cc3ccccc3nc2-1` (stereo unspecified): the T/C reads like this: (T/C endpoint: median survival time, dose: 3.75 mg/kg/injection, schedule: Q04HX004 (iv), vehicle: dextrose) 126 % of control; (T/C endpoint: median survival time, dose: 3.75 mg/kg/injection, schedule: Q04HX004 (iv), vehicle: other) 137 % of control; (T/C endpoint: median survival time, dose: 15.0 mg/kg/injection, schedule: Q04DX002 (ip), vehicle: saline) 138 and 143 % of control.

Turning to `CSc1ccnc2ccccc12`, the survivor count is 3 of 6 (T/C endpoint: mean survival time, dose: 100.0 mg/kg/injection, schedule: Q01DX009 (ip), vehicle: other) and 5 of 6 (T/C endpoint: mean survival time, dose: 200.0 mg/kg/injection, schedule: Q01DX009 (ip), vehicle: other).

Consider `N#Cc1c(-c2ccc(F)cc2)c(-c2ccc(F)cc2)nn(CCO)c1=O`, for which the T/C by setting is: (T/C endpoint: median survival time, dose: 120.0 mg/kg/injection, schedule: Q01DX005 (ip), vehicle: water) 125 % of control; (T/C endpoint: median survival time, dose: 200.0 mg/kg/injection, schedule: Q01DX005 (ip), vehicle: distilled water + Tween-80) 130 % of control; (T/C endpoint: median survival time, dose: 300.0 mg/kg/injection, schedule: Q01DX005 (ip), vehicle: distilled water + Tween-80) 144 % of control; (T/C endpoint: median survival time, dose: 333.33 mg/kg/injection, schedule: Q01DX005 (ip), vehicle: water) 125 % of control; (T/C endpoint: median survival time, dose: 555.55 mg/kg/injection, schedule: Q01DX005 (ip), vehicle: water) 125 % of control; (T/C endpoint: median survival time, dose: 741.13 mg/kg/injection, schedule: Q01DX005 (ip), vehicle: water) 135 % of control. Also, the survivor count reads like this: (T/C endpoint: median survival time, dose: 555.5 mg/kg/injection, schedule: Q01DX005 (ip), vehicle: water) 3 of 6; (T/C endpoint: median survival time, dose: 833.3 mg/kg/injection, schedule: Q01DX005 (ip), vehicle: distilled water + Tween-80) 3 of 6.

Turning to `N#CN1CCOCC1`, the survivor count is, setting by setting: under setting [3], 0 of 6; (T/C endpoint: mean survival time, dose: 400.0 mg/kg/injection, schedule: Q04DX003 (ip), vehicle: saline) 0 of 6.

Take `ONc1ncnc2nc[nH]c12`: the T/C is 128 % of control (T/C endpoint: mean survival time, dose: 89.0 mg/kg/injection, schedule: Q01DX009 (ip), vehicle: saline); 140 % of control (T/C endpoint: mean survival time, dose: 133.0 mg/kg/injection, schedule: Q01DX009 (ip), vehicle: saline); 134 % of control under setting [4]; 138 % of control (T/C endpoint: mean survival time, dose: 300.0 mg/kg/injection, schedule: Q01DX009 (ip), vehicle: saline).

Turning to `CN(Cc1cnc2nc(N)nc(N)c2n1)c1ccc(C(=O)NC(CCC(=O)NC(CCC(=O)NC(CCC(=O)NC(CCC(=O)O)C(=O)O)C(=O)O)C(=O)O)C(=O)O)cc1` (stereo unspecified), the T/C by setting is: (T/C endpoint: mean survival time, dose: 2.0 mg/kg/injection, schedule: Q01DX005 (ip), vehicle: sodium bicarbonate) 127 % of control; (T/C endpoint: mean survival time, dose: 4.0 mg/kg/injection, schedule: Q01DX005 (ip), vehicle: sodium bicarbonate) 132 and 132 % of control [5 of 6 alive]; (T/C endpoint: mean survival time, dose: 8.0 mg/kg/injection, schedule: Q01DX005 (ip), vehicle: sodium bicarbonate) 141 and 144 % of control; (T/C endpoint: mean survival time, dose: 16.0 mg/kg/injection, schedule: Q01DX005 (ip), vehicle: sodium bicarbonate) 149 % of control. In addition, where the note is “T/C endpoint: mean survival time, dose: 32.0 mg/kg/injection, schedule: Q01DX005 (ip), vehicle: sodium bicarbonate”, the survivor count is listed as 4 of 6.

For the molecule `CC(Oc1ccc(Cl)cc1)C(/C=N/N=C(N)N)=N/N=C(N)N` (stereo unspecified), the survivor count (T/C endpoint: mean survival time, dose: 50.0 mg/kg/injection, schedule: Q01DX009 (ip), vehicle: saline) was 6 of 6; the survivor count (T/C endpoint: mean survival time, dose: 100.0 mg/kg/injection, schedule: Q01DX009 (ip), vehicle: saline) is recorded as 0 of 6; the survivor count under setting [4] was 0 of 6; the survivor count under setting [3] is reported as 0 of 6.

`C=CCOCCC#N`: the survivor count under setting [2] is 0 of 6 and the survivor count under setting [1] is reported as 3 of 6.

The values above are taken from PubChem BioAssay AID256 (DTP/NCI, 2004).
